Experimental findings from article doi:10.1101/2022.03.15.484321 are described below.

Test [1] addresses T1, mitochondria-targeted Par6^Cter (UniProt Q9NPB6).
T1 sequence: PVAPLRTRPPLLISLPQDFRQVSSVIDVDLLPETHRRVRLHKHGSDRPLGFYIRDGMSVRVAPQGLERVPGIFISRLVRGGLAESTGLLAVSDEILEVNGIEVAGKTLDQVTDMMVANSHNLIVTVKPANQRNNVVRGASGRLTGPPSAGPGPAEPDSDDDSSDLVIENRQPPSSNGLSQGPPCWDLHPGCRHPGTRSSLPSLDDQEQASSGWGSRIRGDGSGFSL
The test can be described thus: relocalisation to mitochondria.

Test [2] concerns the target T2, mitochondria-targeted Par6A^Nter (UniProt Q9NPB6).
T2 sequence: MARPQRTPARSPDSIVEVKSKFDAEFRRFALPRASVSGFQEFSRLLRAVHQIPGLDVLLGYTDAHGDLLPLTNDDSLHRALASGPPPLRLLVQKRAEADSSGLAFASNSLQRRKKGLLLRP
The test can be described thus: relocalisation to mitochondria.

Another test deals with T3, GST-Par6^Nter (UniProt Q9NPB6).
T3 sequence: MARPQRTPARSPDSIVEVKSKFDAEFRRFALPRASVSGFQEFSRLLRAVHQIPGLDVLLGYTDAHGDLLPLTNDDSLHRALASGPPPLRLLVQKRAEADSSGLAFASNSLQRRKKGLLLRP
The test can be described thus: pull-down.

Results are given in words; binding and its absence hold for the method and conditions named. For part of these data: Binding seen in cells or lysates may run through a third protein. Some binding calls cover weakened binding; strength is not graded here. Sequences can lack the tags named with a protein.

B1: GFP-Par6A^Nter (domain or fragment, UniProt Q9NPB6 1-121)
chain: MARPQRTPARSPDSIVEVKSKFDAEFRRFALPRASVSGFQEFSRLLRAVHQIPGLDVLLGYTDAHGDLLPLTNDDSLHRALASGPPPLRLLVQKRAEADSSGLAFASNSLQRRKKGLLLRP
Regarding B1, in test [1], the binding result is reported as “binds”.

B2: GFP-Par6A^Cter (domain or fragment, UniProt Q9NPB6 121-346)
chain: PVAPLRTRPPLLISLPQDFRQVSSVIDVDLLPETHRRVRLHKHGSDRPLGFYIRDGMSVRVAPQGLERVPGIFISRLVRGGLAESTGLLAVSDEILEVNGIEVAGKTLDQVTDMMVANSHNLIVTVKPANQRNNVVRGASGRLTGPPSAGPGPAEPDSDDDSSDLVIENRQPPSSNGLSQGPPCWDLHPGCRHPGTRSSLPSLDDQEQASSGWGSRIRGDGSGFSL
On to B2, for which the binding result in test [2] is recorded as “binds”.

B3: PC-Par6^Cter (domain or fragment, UniProt Q9NPB6 121-346)
chain: PVAPLRTRPPLLISLPQDFRQVSSVIDVDLLPETHRRVRLHKHGSDRPLGFYIRDGMSVRVAPQGLERVPGIFISRLVRGGLAESTGLLAVSDEILEVNGIEVAGKTLDQVTDMMVANSHNLIVTVKPANQRNNVVRGASGRLTGPPSAGPGPAEPDSDDDSSDLVIENRQPPSSNGLSQGPPCWDLHPGCRHPGTRSSLPSLDDQEQASSGWGSRIRGDGSGFSL
On to B3, for which, in the test with GST-Par6^Nter, the binding entry is “binds”.
